The experiment relates to Candida albicans. Kind of experiment: Antimicrobial activity against Candida albicans ATCC 10231 after 24 hrs by microdilution technique. The conditions noted are these: ATCC 10231, 24 h. The class given is functional.

Results on one compound are retold here after ChEMBL document CHEMBL1806480, “New condensed pyrroles of potential biological interest syntheses and structure-activity relationship studies” (2011).

By MIC is commonly meant the lowest concentration found to suppress growth. High values mean weaker potency, low ones greater potency.

In brackets after ≈: the same amount, converted by molar mass.

`OC(Cn1cncn1)(Cn1cncn1)c1ccc(F)cc1F` [FLUCONAZOLE] displayed an MIC of 512 µg/mL (≈ 1670 µM).
